# PubChem BioAssay AID1259405 | NCATS, 2018
# Test: 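Mouse-designed siRNAs used to find CHO productivity engineering targets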 (primary screen)
# System: Chinese hamster CHO-K1 ovary cells with stable secreted eGFP expression
# Reagents: single siRNA against mouse genes, 0.8 pmol siRNA per well (2 µl of 400 nM stock)
# Duration: 3 days
# Measurement: 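Per-well intracellular GFP measured by laser scanning cytometry, plus viability from ATP luminescence, each relative to plate median of non-targeting control wells, in %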
# Scale: GFP, % of control: higher = more GFP per well, higher productivity; viability (ATP), % of control: higher = more viable cells (more ATP)
# Active means: 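Called active when intracellular GFP, relative to negative control, is at or above 120%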
# This is a random part of about 50,000 reagents tested. About 4,000 of them (8%) were called active. 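Mouse siRNA library applied to hamster cells; one well for each siRNA.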 The numbers tell different reagents against one gene apart.
Target gene,siRNA no.,"GFP, % of control","viability (ATP), % of control",outcome
Fndc5 (fibronectin type III domain containing 5),1,107,97.6,inactive
Fndc5 (fibronectin type III domain containing 5),2,98.9,105,inactive
Fndc5 (fibronectin type III domain containing 5),3,40.3,68.4,inactive
9130008F23Rik (RIKEN cDNA 9130008F23 gene),1,83.9,56,inactive
9130008F23Rik (RIKEN cDNA 9130008F23 gene),2,76.7,77.2,inactive
9130008F23Rik (RIKEN cDNA 9130008F23 gene),3,71.2,67.5,inactive
Glrp1 (glutamine repeat protein 1),1,44.3,74.7,inactive
Glrp1 (glutamine repeat protein 1),2,58.4,78.8,inactive
Glrp1 (glutamine repeat protein 1),3,52.4,85.9,inactive
Wdr20 (WD repeat domain 20),1,41.6,67.9,inactive
Wdr20 (WD repeat domain 20),2,82.1,60.8,inactive
Wdr20 (WD repeat domain 20),3,88.4,97.8,inactive
"Spats2l (spermatogenesis associated, serine-rich 2-like)",1,32.5,48.6,inactive
"Spats2l (spermatogenesis associated, serine-rich 2-like)",2,56.4,70.6,inactive
"Spats2l (spermatogenesis associated, serine-rich 2-like)",3,58,48.5,inactive
Zfp109 (zinc finger protein 109),1,89.1,84,inactive
Zfp109 (zinc finger protein 109),2,64.2,77.8,inactive
Zfp109 (zinc finger protein 109),3,75.7,77.3,inactive
Sik1 (salt inducible kinase 1),1,79.8,61,inactive
Acss2 (acyl-CoA synthetase short-chain family member 2),1,37.4,79.4,inactive
Acss2 (acyl-CoA synthetase short-chain family member 2),2,71.7,70.1,inactive
Acss2 (acyl-CoA synthetase short-chain family member 2),3,202,140,active
2610008E11Rik (RIKEN cDNA 2610008E11 gene),1,116,109,inactive
2610008E11Rik (RIKEN cDNA 2610008E11 gene),2,46.4,64.9,inactive
2610008E11Rik (RIKEN cDNA 2610008E11 gene),3,74.4,73.6,inactive
Ska3 (spindle and kinetochore associated complex subunit 3),1,63.5,82.9,inactive
Ska3 (spindle and kinetochore associated complex subunit 3),2,89.2,77.9,inactive
Ska3 (spindle and kinetochore associated complex subunit 3),3,120,70,active
"Lgals4 (lectin, galactose binding, soluble 4)",1,77.5,61.6,inactive
"Lgals4 (lectin, galactose binding, soluble 4)",2,66.8,64.2,inactive
"Lgals4 (lectin, galactose binding, soluble 4)",3,59.7,56.8,inactive

Sorted by “viability (ATP), % of control” (lowest first): some entries from above
Target gene,siRNA no.,"GFP, % of control","viability (ATP), % of control",outcome
9130008F23Rik (RIKEN cDNA 9130008F23 gene),1,83.9,56,inactive
Wdr20 (WD repeat domain 20),2,82.1,60.8,inactive
9130008F23Rik (RIKEN cDNA 9130008F23 gene),3,71.2,67.5,inactive
Wdr20 (WD repeat domain 20),1,41.6,67.9,inactive
Fndc5 (fibronectin type III domain containing 5),3,40.3,68.4,inactive
Glrp1 (glutamine repeat protein 1),1,44.3,74.7,inactive
9130008F23Rik (RIKEN cDNA 9130008F23 gene),2,76.7,77.2,inactive
Glrp1 (glutamine repeat protein 1),2,58.4,78.8,inactive
Glrp1 (glutamine repeat protein 1),3,52.4,85.9,inactive
Fndc5 (fibronectin type III domain containing 5),1,107,97.6,inactive
Fndc5 (fibronectin type III domain containing 5),2,98.9,105,inactive

Continued:
Target gene,siRNA no.,"GFP, % of control","viability (ATP), % of control",outcome
Tsga8 (testis specific gene A8),1,161,70.4,active
Tsga8 (testis specific gene A8),2,13.6,18.1,inactive
Tsga8 (testis specific gene A8),3,72.7,106,inactive
Cplx4 (complexin 4),1,59.4,70.5,inactive
Cplx4 (complexin 4),2,69.3,79.8,inactive
Cplx4 (complexin 4),3,101,82.3,inactive
Bod1 (biorientation of chromosomes in cell division 1),1,101,101,inactive
Bod1 (biorientation of chromosomes in cell division 1),2,85.1,68.1,inactive
Bod1 (biorientation of chromosomes in cell division 1),3,106,111,inactive
Coq10b (coenzyme Q10B),1,41.8,36.7,inactive
Coq10b (coenzyme Q10B),2,91.5,80,inactive
Coq10b (coenzyme Q10B),3,85.9,68.7,inactive
Stat1 (signal transducer and activator of transcription 1),1,73.4,102,inactive
Stat1 (signal transducer and activator of transcription 1),2,59.7,75.3,inactive
Stat1 (signal transducer and activator of transcription 1),3,59.4,95.5,inactive
Wasl (WASP like actin nucleation promoting factor),1,65.9,65.7,inactive
Wasl (WASP like actin nucleation promoting factor),2,70.9,69.7,inactive
Wasl (WASP like actin nucleation promoting factor),3,74.8,70.6,inactive
Ankrd33 (ankyrin repeat domain 33),1,66.3,49.8,inactive
Ankrd33 (ankyrin repeat domain 33),2,95.9,32.8,inactive
Ankrd33 (ankyrin repeat domain 33),3,91.9,70.1,inactive
"Pcdhga3 (protocadherin gamma subfamily A, 3)",1,65.5,72.5,inactive
"Pcdhga3 (protocadherin gamma subfamily A, 3)",2,59.6,66.2,inactive
"Pcdhga3 (protocadherin gamma subfamily A, 3)",3,0,75.6,inactive
Or2ag18 (olfactory receptor family 2 subfamily AG member 18),1,65.9,41.1,inactive
Or2ag18 (olfactory receptor family 2 subfamily AG member 18),2,80.1,70.5,inactive
Or2ag18 (olfactory receptor family 2 subfamily AG member 18),3,83.8,89.2,inactive
Ypel4 (yippee like 4),1,33,49.5,inactive
Ypel4 (yippee like 4),2,46.2,59.3,inactive
Ypel4 (yippee like 4),3,67.3,79.3,inactive
Drd2 (dopamine receptor D2),1,155,107,active
Drd2 (dopamine receptor D2),2,81.6,112,inactive
Drd2 (dopamine receptor D2),3,98.2,76.1,inactive
Senp2 (SUMO/sentrin specific peptidase 2),1,81.1,85.4,inactive
Senp2 (SUMO/sentrin specific peptidase 2),2,62.8,56.9,inactive
Senp2 (SUMO/sentrin specific peptidase 2),3,64.5,67,inactive
Fut8 (fucosyltransferase 8),1,67.7,62,inactive
Fut8 (fucosyltransferase 8),2,55.5,62.1,inactive
Fut8 (fucosyltransferase 8),3,120,78.7,active
Wdr54 (WD repeat domain 54),1,99.6,102,inactive
Wdr54 (WD repeat domain 54),2,88.2,118,inactive
Wdr54 (WD repeat domain 54),3,33.2,61.3,inactive
Arih1 (ariadne RBR E3 ubiquitin protein ligase 1),1,61.4,66.2,inactive
Arih1 (ariadne RBR E3 ubiquitin protein ligase 1),2,82.7,64.1,inactive
Arih1 (ariadne RBR E3 ubiquitin protein ligase 1),3,148,118,active
Slc28a3,1,65.1,58.1,inactive
Slc28a3,2,76.2,95.3,inactive
Slc28a3,3,85.9,91.6,inactive
"Cacnb3 (calcium channel, voltage-dependent, beta 3 subunit)",1,85.8,67.3,inactive
"Cacnb3 (calcium channel, voltage-dependent, beta 3 subunit)",2,53.4,40.9,inactive
"Cacnb3 (calcium channel, voltage-dependent, beta 3 subunit)",3,85.8,69,inactive
Scrg1 (scrapie responsive gene 1),1,78.7,60,inactive
Scrg1 (scrapie responsive gene 1),2,52.5,33.2,inactive
Scrg1 (scrapie responsive gene 1),3,99.1,97.7,inactive
